PubChem BioAssay AID1224830 | NIAID, 2016
In all, the deposit lists about 18,000 reagents; shown is a part drawn at random. Of all reagents, about 2,900 (16%) got an active call. 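Calls are made per well; low scores hint the gene aids the LPS response, high scores that it dampens it.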 Entries without a mark were called inactive. Repeated entries: four replicate wells of each siRNA pool.

Test: 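Regulators of TLR4 signalling towards TNF-alpha in macrophage-like cells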 (primary screen)
Cells: human THP-1 monocytic leukaemia cells, TNF dual-luciferase reporter clone, PMA-differentiated to macrophage-like cells
Reagents: siRNA pool against human genes, 50 nM
Timing: LPS for 4 h, given about 3 days after siRNA transfection
Conditions: bacterial LPS (TLR4 ligand), 10 ng/ml
Measured: 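Ratio of firefly to renilla light, scaled to the plate median and expressed as a robust z-score per replicate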
Direction: TNF reporter robust z-score: higher = stronger TNF reporter response to LPS
Rule for the call: 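Each well counts as active if its z-score is over 2.8 or under -1.5; controls are left without a call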

| gene | TNF reporter robust z-score |
| --- | --- |
| PYY (GeneID 5697) | -0.16 |
| PYY (GeneID 5697) | 0.08 |
| PYY (GeneID 5697) | 0.85 |
| PYY (GeneID 5697) | 1.56 |
| HSFY1 (GeneID 86614) | 0.88 |
| HSFY1 (GeneID 86614) | 1.36 |
| HSFY1 (GeneID 86614) | 0.74 |
| HSFY1 (GeneID 86614) | 0.4 |
| ZNF576 (GeneID 79177) | -0.92 |
| ZNF576 (GeneID 79177) | -1.36 |
| ZNF576 (GeneID 79177) | -0.8 |
| ZNF576 (GeneID 79177) | -0.97 |
| SMARCAD1 (GeneID 56916) | 1.11 |
| SMARCAD1 (GeneID 56916) | 0.61 |
| SMARCAD1 (GeneID 56916) | 0.67 |
| SMARCAD1 (GeneID 56916) | 2.18 |
| SLC12A5 (GeneID 57468) | 1.38 |
| SLC12A5 (GeneID 57468) | 2.04 |
| SLC12A5 (GeneID 57468) | 1.83 |
| SLC12A5 (GeneID 57468) | 1.54 |
| LSM6 (GeneID 11157) | -1.41 |
| LSM6 (GeneID 11157) | -0.98 |
| LSM6 (GeneID 11157) | -1.27 |
| LSM6 (GeneID 11157) | -1.71 (active) |
| C3orf38 (GeneID 285237) | -1.62 (active) |
| C3orf38 (GeneID 285237) | -0.67 |
| C3orf38 (GeneID 285237) | -1.06 |
| C3orf38 (GeneID 285237) | -1.47 |
| ATXN10 (GeneID 25814) | -1.61 (active) |
| ATXN10 (GeneID 25814) | 0.21 |
| ATXN10 (GeneID 25814) | -1.06 |
| ATXN10 (GeneID 25814) | -0.12 |
| ANP32B (GeneID 10541) | -0.44 |
| ANP32B (GeneID 10541) | 0.07 |
| ANP32B (GeneID 10541) | -0.64 |
| ANP32B (GeneID 10541) | 0.04 |
| CCND3 (GeneID 896) | -1.89 (active) |
| CCND3 (GeneID 896) | -1.3 |
| CCND3 (GeneID 896) | -1.63 (active) |
| CCND3 (GeneID 896) | -1.55 (active) |
| KRT10 (GeneID 3858) | 0.04 |
| KRT10 (GeneID 3858) | -0.46 |
| KRT10 (GeneID 3858) | -0.12 |
| KRT10 (GeneID 3858) | 0.98 |
| MEIS1 (GeneID 4211) | -0.99 |
| MEIS1 (GeneID 4211) | -0.16 |
| MEIS1 (GeneID 4211) | -1.01 |
| MEIS1 (GeneID 4211) | -0.13 |
| GON4L (GeneID 54856) | 1.9 |
| GON4L (GeneID 54856) | 1.06 |
| GON4L (GeneID 54856) | 0.81 |
| GON4L (GeneID 54856) | 2.2 |
| RPL41 (GeneID 6171) | 0.81 |
| RPL41 (GeneID 6171) | 0.71 |
| RPL41 (GeneID 6171) | 0.31 |
| RPL41 (GeneID 6171) | 1.48 |
| FAM153A (GeneID 285596) | 0.29 |
| FAM153A (GeneID 285596) | 0.02 |
| FAM153A (GeneID 285596) | 0.46 |
| FAM153A (GeneID 285596) | -0.29 |
| MT1M (GeneID 4499) | 0.22 |
| MT1M (GeneID 4499) | 0.79 |
| MT1M (GeneID 4499) | -0.2 |
| MT1M (GeneID 4499) | 0.28 |
| GCSH (GeneID 2653) | -0.3 |
| GCSH (GeneID 2653) | -0.07 |
| GCSH (GeneID 2653) | -0.35 |
| GCSH (GeneID 2653) | -0.09 |
| NEDD8 (GeneID 4738) | 0.51 |
| NEDD8 (GeneID 4738) | 0.35 |
| NEDD8 (GeneID 4738) | -1.18 |
| NEDD8 (GeneID 4738) | -0.46 |
| FSHR (GeneID 2492) | 0.64 |
| FSHR (GeneID 2492) | 0.95 |
| FSHR (GeneID 2492) | 1 |
| FSHR (GeneID 2492) | 1.73 |
| SLC71A2 (GeneID 84641) | -0.23 |
| SLC71A2 (GeneID 84641) | 1.49 |
| SLC71A2 (GeneID 84641) | 0.13 |
| SLC71A2 (GeneID 84641) | 1.12 |
| NOA1 (GeneID 84273) | -1.04 |
| NOA1 (GeneID 84273) | -1.29 |
| NOA1 (GeneID 84273) | -0.88 |
| NOA1 (GeneID 84273) | -0.68 |
| TCF4 (GeneID 6925) | -0.84 |
| TCF4 (GeneID 6925) | 1.24 |
| TCF4 (GeneID 6925) | 0.84 |
| TCF4 (GeneID 6925) | 1.77 |
| PREP (GeneID 5550) | 0.77 |
| PREP (GeneID 5550) | -0.35 |
| PREP (GeneID 5550) | 0.55 |
| PREP (GeneID 5550) | 1.01 |
| FMOD (GeneID 2331) | -0.52 |
| FMOD (GeneID 2331) | -0.62 |
| FMOD (GeneID 2331) | -1 |
| FMOD (GeneID 2331) | -0.25 |
| GADD45B (GeneID 4616) | 1.81 |
| GADD45B (GeneID 4616) | 2.61 |
| GADD45B (GeneID 4616) | 1.43 |
| GADD45B (GeneID 4616) | 2.91 (active) |
| METTL13 (GeneID 51603) | 1.3 |
| METTL13 (GeneID 51603) | 0.15 |
| METTL13 (GeneID 51603) | 0.07 |
| METTL13 (GeneID 51603) | 0.87 |
| NETO1 (GeneID 81832) | -0.65 |
| NETO1 (GeneID 81832) | -0.08 |
| NETO1 (GeneID 81832) | -0.89 |
| NETO1 (GeneID 81832) | 0.01 |
| COPS7B (GeneID 64708) | 0 |
| COPS7B (GeneID 64708) | 0.38 |
| COPS7B (GeneID 64708) | 1.64 |
| COPS7B (GeneID 64708) | 1.68 |
